Experimental data: PubChem BioAssay AID1919010 (Molecular Pharmacology Branch, DTP, NCI, 2023)
Where “and” joins values, the source holds several entries; their conditions need not be identical. Identical values can stand only once. The source gives many values for each of these; only a part stands here.

System: Hs578T complex spheroid growth, percent test/control
Experiment: Anticancer human tumor Hs578T cell line growth inhibition [AhR];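 note: luminescent viability signal as a proxy for spheroid growth; spheroids exposed to agents for one week after three days of growth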
Details: stronger effect = lower value
From the text: Multicellular complex tumor spheroid response to aryl hydrocarbon receptor antagonists in combination with a variety of drugs and investigational agents in selected tumor cell lines
The current study was undertaken to assess response to aryl hydrocarbon receptor antagonists in combination with standard-of-care drugs and investigational agents in solid tumor complex spheroid models. Complex spheroids include a stromal component modeled by human endothelial cells (HUVEC) and fibroblasts modeled by human mesenchymal stem cells (MSCs). The concentration ranges selected for each drug and investigational agent were based upon clinically achievable concentrations if the clinical Cmax of the agent was known.
Compounds. The drugs and investigational agents: BAY 2416964 (NSC825713), GNF351 (NSC835774), CH-223191 (NSC835775), CPI-455 (NSC825282), aza-TdCyd (NSC777586), decitabine (NSC127716), belinostat (NSC758774), entinostat (NSC756642), pevonedistat (NSC761192), tazemetostat (NSC777109), talazoparib (NSC765396), olaparib (NSC753686), selinexor (NSC780203), nedisertib (M3814, NSC802822), bortezomib (NSC756655), venetoclax (NSC766270), doxorubicin (NSC123127), elimusertib (BAY189344, NSC800525), ceralasertib (AZD6738, NSC777638), TAK-243 (NSC785004), alisertib (NSC759677), etoposide (NSC141540), topotecan (NSC609699), eribulin (NSC707389), gemcitabine (NSC613327), carboplatin (NSC241240), cisplatin (NSC119875), and SN-38 (NSC673596) were obtained from the National Cancer Institute (NCI) Developmental Therapeutics Program Chemical Repository (32). The FDA-approved anticancer drug set is available from the Developmental Therapeutics Program at https://dtp.cancer.gov/organization/dscb/obtaining/available plates.htm. […] The stock solutions were prepared in dimethyl sulfoxide (DMSO, Sigma-Aldrich, St. Louis, MO, cat. D2650), except for the platinum compounds which were prepared in saline (Quality Biological, Gaithersburg, MD, cat. 114-055-101), at 800-fold the tested concentration and stored at -70 degrees C prior to their use. All drugs and investigational agents were tested over a range starting from a high concentration at or near the clinical Cmax and decreasing in half-log increments. If the clinical Cmax for an agent had not been determined, the highest concentration tested was 10 microM (Table 1).
Cell Culture. All cells were maintained in an incubator at 37 degrees C and 5% CO2 with 95% humidity. The PDC lines were cultured according to standard operating procedures established by the NCI PDMR (https://pdmr.cancer.gov). Briefly, all PDCs were thawed and cultured in Matrigel-coated flasks prepared with a working solution of 1X Ham's F-12 nutrient mix, without supplementation (Invitrogen, Waltham, MA, cat. 11765054), 100 U/mL penicillin-streptomycin (Invitrogen, cat. 15140122), and 2.5% Matrigel (Corning Inc., Corning, NY, cat. 354248) for the first three passages. All PDCs were cultured in complete DMEM/F-12 media containing advanced DMEM/F-12 (Invitrogen, cat. 12634028), 4.9% defined fetal bovine serum, heat inactivated (HyClone Laboratories Inc., Logan, UT, cat. SH30070.03HI), 389 ng/mL hydrocortisone (Sigma-Aldrich, cat. H4001), 9.7 ng/mL human EGF recombinant protein (Invitrogen, cat. PHG0313), 23.4 microg/mL adenine (Sigma-Aldrich, cat. A2786), 97.3 U/mL penicillin-streptomycin (Invitrogen, cat. 15140122), 1.9 mM L-glutamine (Invitrogen, cat. 25030081), and 9.7 microM Y-27632 dihydrochloride (Tocris Bioscience, Bristol, United Kingdom, cat. 1254). The PDCs were cultured in complete DMEM/F12 media without 10 microM Y-27632 dihydrochloride for at least two passages prior to the screen. The established cell lines NCI-H1341 and […] were cultured in DMEM/F-12, HEPES (Invitrogen, cat. 11330032), 5% defined fetal bovine serum (HyClone Laboratories Inc., cat. SH30070.03), ITS premix universal culture supplement [insulin (5 microg/mL), transferrin (5 microg/mL), and selenious acid (5 ng/mL)] […]

SMILES	viability, T/C (compound 0.1 µM)	viability, T/C (compound 1 µM)	viability, T/C (compound 10 µM)	viability, T/C (compound 0.316 µM)	viability, T/C (compound 3.16 µM)
Cc1cncc(-c2nc(NCCc3c[nH]c4ccccc34)c3ncn(C(C)C)c3n2)c1	117% and 105% (2×)	114% and 98.9%	5.15% [middle of 5 runs]		
Cc1ccccc1N=Nc1ccc(NC(=O)c2ccnn2C)c(C)c1		104% and 101%	69.3% [middle of 5 runs]	106% (2×) and 120%	95.5% [middle of 5 runs]
CC(CO)NC(=O)c1cc(-c2ccc(Cl)cc2)nn(-c2cnn(C)c2)c1=O (stereo unspecified)	118% and 109% and 107% (2×)	120%		123%	117% [middle of 4 runs]
